# Measurements as given in US9322000B2, “Methanol dehydrogenase enzymes from Bacillus” (Sinvent AS, priority 2012, dated 2016).
# Some of these results come from one statement about several compounds together.
# Assay: Heat stability: pre-incubation of purified MDHs at 45° C. or 60° C. prior to the enzyme assay
# Type: biochemical
# Details: preincubation at 60° C. for 6 minutes
# Experimental: FIG. 5. (A) Temperature stability of MGA3 Mdh, Mdh2 and Mdh3 was tested in vitro. Enzymes were incubated at 45° C. or at 60° C. prior to the enzyme assay. (B) Temperature stability of PB1 Mdh, Mdh1 and Mdh2 was tested in vitro. Enzymes were incubated at 45° C. or at 60° C. prior to the enzyme assay.
# The heat stability of the six MDHs was tested by pre-incubation of the proteins at 45° C. and 60° C. and samples were taken at different time points for enzyme assays. As expected, all enzymes retained essentially all catalytic activity upon preincubations at 45° C. (FIG. 5). […] A selection of the experiments was repeated in the presence of equal amounts of purified Act, and this had no effect on temperature stability for any of the MDHs (data not shown).
row,Molecule,reduction of catalytic activity upon preincubation
1,"Mdh-MGA3: previously reported plasmid pBM19-encoded NAD-dependent methanol dehydrogenase of B. methanolicus MGA3, SEQ ID NO. 8 (protein, Bacillus methanolicus MGA3) MTTNFFIPPASVIGRGAVKEVGTRLKQIGAKKALIVTDAFLHSTGLSEEVAKNIREAGVDVAIFPKAQPDPADTQVHEGVDVFKQENCDSLVSIGGGSSHDTAKAIGLVAANGGRINDYQGVNSVEKPVVPVVAITTTAGTGSETTSLAVITDSARKVKMPVIDEKITPTVAIVDPELMVKKPAGLTIATGMDALSHAIEAYVAKGATPVTDAFAIQAMKLINEYLPKAVANGEDIEAREKMAYAQYMAGVAFNNGGLGLVHSISHQVGGVYKLQHGICNSVNMPHVCAFNLIAKTERFAHIAELLGENVAGLSTAAAAERAIVALERINKSFGIPSGYAEMGVKEEDIELLAKNAYEDVCTQSNPRVPTVQDIAQIIKNAM",up to 90%
2,"Mdh2-MGA3: NAD-dependent methanol dehydrogenase encoded by chromosomal gene mdh2 of B. methanolicus MGA3, SEQ ID NO. 2 (protein, Bacillus methanolicus MGA3) MTNTQSAFFMPSVNLFGAGSVNEVGTRLADLGVKKALLVTDAGLHGLGLSEKISSIIRAAGVEVSIFPKAEPNPTDKNVAEGLEAYNAENCDSIVTLGGGSSHDAGKAIALVAANGGKIHDYEGVDVSKEPMVPLIAINTTAGTGSELTKFTIITDTERKVKMAIVDKHVTPTLSINDPELMVGMPPSLTAATGLDALTHAIEAYVSTGATPITDALAIQAIKIISKYLPRAVANGKDIEAREQMAFAQSLAGMAFNNAGLGYVHAIAHQLGGFYNFPHGVCNAVLLPYVCRFNLISKVERYAEIAAFLGENVDGLSTYDAAEKAIKAIERMAKDLNIPKGFKELGAKEEDIETLAKNAMKDACALTNPRKPKLEEVIQIIKNAM",up to 90%
